Results taken from PubChem BioAssay AID540276 (National Center for Advancing Translational Sciences (NCATS), 2011).
Screen size: about 300,000 compounds; about 5,400 (1.8%) were called active. Inconclusive means that the source gave no clear call. Such entries were picked first, then a sample of the others. The call rests on the fitted dose curve; tested in HEK293 cells. Potencies of inconclusive entries are doubtful fits and often do not repeat.

Assay: qHTS for inhibitors of binding or entry into cells for Marburg Virus
Settings: Marburg virus pseudotyped entry inhibition, cell reporter; activity change, negative = inhibition: at 37.8 µM (top of the series) unless noted
On the % scale 0 is the no-effect control and ±100 the full control effect; potency means the concentration at half of the fitted maximal effect.

| Structure (SMILES) | Potency | activity change, negative = inhibition |
| --- | --- | --- |
| COc1cccc(OCC(=O)Nc2c3c(nn2-c2ccccc2)CS(=O)(=O)C3)c1 | inactive |  |
| CC(C)(CNC(=O)Cc1ccc(Cl)cc1Cl)N1CCCCC1 | inconclusive: 14.1 µM [inhibitor, single point] |  |
| COC(=O)c1cccc(NC(=O)c2cccc(OC)c2)c1 | inactive |  |
| Cc1ccccc1Cn1nc(C)c(NC(=O)c2noc3c2CCCC3)c1C | inconclusive: 23.1 µM [inhibitor, single point] |  |
| Cc1ccc(NC(=O)CSc2ccc(-c3cccnc3)nn2)cc1 | inconclusive: 14.1 µM [activator, single point] |  |
| Cc1cccc(C)c1NC(=O)c1ccc([N+](=O)[O-])s1 | inactive |  |
| O=C(NC(c1ccccc1)c1ccccc1)c1cccc(S(=O)(=O)NCc2ccccc2)c1 | inconclusive: 16.4 µM [inhibitor, partial curve, poor fit] |  |
| C/C(=N\NC(=O)c1nnn(-c2nonc2N)c1-c1ccc2c(c1)OCO2)c1ccc(F)cc1 | inconclusive: 31.6 µM [inhibitor, single point] |  |
| COCCn1c(C)cc(C(=O)CN2C(=O)NC3(CCCCCCC3)C2=O)c1C | inconclusive: 4.61 µM [activator, partial curve, poor fit] |  |
| Cc1cc(C)cc(Nc2cc(C(=O)NCCCN(C)C3CCCCC3)c3ccccc3n2)c1 | inconclusive: 7.08 µM [inhibitor, partial curve, poor fit] |  |
| CSc1nc(Nc2ccc(Cl)cc2)c(C#N)c(=O)[nH]1 | inactive |  |
| CSc1sc(C(=O)NN)c2c1C1(CCC2)SCCS1 | inconclusive: 35.5 µM [inhibitor, single point] |  |
| COc1c(Cl)cc(Cl)cc1/C=C/C(=O)c1ccc(NC(=O)c2cccs2)cc1 | active: 11.2 µM |  |
| COc1ccc(/C=C2\SC(=O)N(CCC(=O)N3CCCCC3CCO)C2=O)cc1 (centres undefined) | inactive |  |
| O=C(O)C(Cc1ccccc1)NC(=O)C(c1ccccc1)c1ccccc1 (centres undefined) | inactive |  |
| Cc1nnc(C)n1/N=C/c1cccn1C | inconclusive: 31.6 µM [inhibitor, single point] |  |
| O=C1C(Cl)=C(N2CCOCC2)C(=O)N1c1ccccc1F | inconclusive: 22.4 µM [inhibitor, single point] |  |
| CC1(c2ccc3noc(-c4ccccc4)c3c2)OCCO1 | inactive |  |
| CCOC(=O)C1CCN(C(=O)c2ccccc2)C(CC)C1=O (centres undefined) | inactive |  |
| COc1ccc(C2c3ccc4ccccc4c3Oc3ncn(CCCO)c(=N)c32)cc1 (centres undefined) | inconclusive: 7.08 µM [inhibitor, full curve, poor fit] |  |
| Cc1ccccc1Cn1nnc(-c2ccc(C(=O)O)cc2)n1 | inconclusive: 6.31 µM [inhibitor, single point] |  |
| COCCCNC(=O)c1sc2nc(C)c(C(=O)Nc3ccc(C)cc3C)c(-c3ccccc3Cl)c2c1N | inconclusive: 35.5 µM [inhibitor, single point] |  |
| CCc1cc(=O)oc2c(C)c3c(cc12)CN(CCc1ccccc1OC)CO3 | inconclusive: 31.6 µM [inhibitor, partial curve, poor fit] |  |

Rewritten field by field: entries from further up
COC(=O)c1cccc(NC(=O)c2cccc(OC)c2)c1
  Potency: inactive
COc1c(Cl)cc(Cl)cc1/C=C/C(=O)c1ccc(NC(=O)c2cccs2)cc1
  Potency: active: 11.2 µM

Going on with the list.

| Structure (SMILES) | Potency | activity change, negative = inhibition |
| --- | --- | --- |
| COc1ccc(-c2cnc(OC(C)(C)C)nc2OC(C)(C)C)cc1OC | inconclusive: 14.6 µM [inhibitor, partial curve, poor fit] |  |
| COC(=O)C1CCN(C(=O)Nc2ccccc2)CC1 | inconclusive: 22.4 µM [inhibitor, single point] |  |
| c1ccc(-c2noc(CSc3nnnn3C3CCCCC3)n2)cc1 | inactive |  |
| CCN(Cc1cc(=O)[nH]c2ccccc12)C(=O)C(C)C | inactive |  |
| Cc1ccc(NC(=O)CSCc2ccc(F)cc2)cc1 | inconclusive: 5.8 µM [activator, full curve, poor fit] |  |
| Fc1ccc(Nc2nc(-c3ccncc3)nc3ccccc23)cc1 | inconclusive: 0.708 µM [inhibitor, partial curve, poor fit] |  |
| Cc1ccc(S(=O)(=O)N(C)C)cc1NC(=O)Nc1ccccc1 | inactive |  |
| CC1(C)NC(=O)N(CC(=O)OCC(=O)NC(=O)c2ccccc2)C1=O | inconclusive: 0.282 µM [activator, full curve, poor fit] |  |
| CCOC(=O)CC(=O)CSc1nc2c(sc(=S)n2-c2ccc(OCC)cc2)c(=O)[nH]1 | inconclusive: 5.62 µM [inhibitor, partial curve, poor fit] |  |
| O=c1[nH]c2ccccc2nc1-c1ccccc1 | inconclusive: 3.16 µM [activator, single point] |  |
| Cc1ccc(NC2=C(Cl)C(=O)OC2NC(=O)c2ccccc2)cc1 (centres undefined) | inactive |  |
| COc1cc(/C=C/C(=O)Nc2nnc(C(C)(C)C)s2)cc(OC)c1OC | inconclusive: 0.316 µM [inhibitor, full curve, poor fit] |  |
| O=C(Cc1ccccc1)c1nc2ccccc2s1 | inactive |  |
| Cc1cc(/C=N\NC(=O)COc2cccc3cccnc23)c(C)n1-c1ccc(Br)cc1 | inactive |  |
| CCOc1cc(C)nc(N2CCN(C3CCCCC3)CC2)n1 | inconclusive: 29.1 µM [inhibitor, single point] |  |
| CC1CN(N=Cc2ccc([N+](=O)[O-])o2)C(=N)O1 (centres undefined) | inconclusive: 35.5 µM [inhibitor, single point] |  |
| CC1CC(C)CN(C(=O)c2cccc(NC(=O)CC3SC(N4CCCCC4)=NC3=O)c2)C1 (centres undefined) | inconclusive: 35.5 µM [inhibitor, single point] |  |
| Cc1ccc(S(=O)(=O)N2CCCC(C(=O)Nc3ccc(NC(=O)c4ccccn4)cc3)C2)cc1 (centres undefined) | inactive |  |
| ClC1(CNc2ccccc2)CCN(Cc2ccccc2)CC1 | inconclusive: 3.98 µM [inhibitor, full curve, poor fit] |  |
| Cc1ccccc1C(=O)NC1CCN(Cc2ccccc2)CC1 | inactive |  |
| CCOC(=O)C(C(=O)OCC)C(c1ccccc1)N1CCN(c2ccccc2)CC1 (centres undefined) | inactive |  |
| O=C(Nc1ccc2c(c1)CCC2)c1cc(S(=O)(=O)Nc2ccc(F)cc2)c(Cl)cc1Cl | inconclusive: 7.08 µM [inhibitor, full curve] |  |
| O=C(NCCN1CCCC1=O)C1CCC(=O)N(CCc2cccc(F)c2)C1 (centres undefined) | inactive |  |

One compound at a time (already shown):
CC1(C)NC(=O)N(CC(=O)OCC(=O)NC(=O)c2ccccc2)C1=O as listed: Potency: inconclusive: 0.282 µM [activator, full curve, poor fit]
O=C(NCCN1CCCC1=O)C1CCC(=O)N(CCc2cccc(F)c2)C1 (centres undefined) as listed: Potency: inactive
COCCCNC(=O)c1sc2nc(C)c(C(=O)Nc3ccc(C)cc3C)c(-c3ccccc3Cl)c2c1N as listed: Potency: inconclusive: 35.5 µM [inhibitor, single point]
COc1cccc(OCC(=O)Nc2c3c(nn2-c2ccccc2)CS(=O)(=O)C3)c1 as listed: Potency: inactive

Next part.

| Structure (SMILES) | Potency | activity change, negative = inhibition |
| --- | --- | --- |
| NC(=S)NN=C1CCC2(CCCCC2)CC1 | inconclusive: 0.891 µM [inhibitor, single point] |  |
| CCn1c(SCC(=O)Nc2ccccc2Cl)nnc1C1CC1 | inconclusive: 4.47 µM [activator, full curve, poor fit] |  |
| CN(C)c1ccc([C@H]2[C@@H]3C(=O)N(c4ccc(C(=O)O)cc4)C(=O)[C@H]3ON2c2ccccc2)cc1 | inactive |  |
| Cc1ccc(NC(=O)c2sc3nc(C)cc(C)c3c2N)cc1 | inconclusive: 0.112 µM [activator, full curve, poor fit] |  |
| CC(=O)OCC1=C(C(=O)O)N2C(=O)C(NC(=O)c3ccc(COc4ccc(Cl)cc4)o3)C2SC1 (centres undefined) |  | inconclusive: 0.696% [activator] [at 46.1 µM] |
| Cc1ccc(S(=O)(=O)N2CCOCC2)cc1NC(=O)CNCc1ccccc1Cl | inconclusive: 35.5 µM [inhibitor, single point] |  |
| O=C(CCN1CCC2CCC(C2)C1)c1ccccc1 (centres undefined) | inactive |  |
| COCCn1c(SCc2ccc(OC)c(F)c2)nc2ccccc2c1=O | inconclusive: 35.5 µM [inhibitor, single point] |  |
| CC(=O)NC(c1ccc(C(C)C)cc1)c1ccc2cccnc2c1O (centres undefined) | inconclusive: 3.55 µM [inhibitor, full curve, poor fit] |  |
| O=C(N/N=C/c1cn(-c2ccccc2)nc1-c1cc2ccccc2o1)c1ccncc1 | inconclusive: 14.1 µM [inhibitor, single point] |  |
| O=C(O)c1cc(-c2ccc3c(c2)OCO3)nc2ccc(Br)cc12 | inconclusive: 17.8 µM [inhibitor, partial curve, poor fit] |  |
| CN(CC(=O)Nc1c(Cl)cccc1Cl)C(=O)c1cc(-c2cccs2)nn1-c1ccccc1 | inactive |  |
| CS(=O)(=O)c1nc([N+](=O)[O-])nn1CCCc1ccccc1 | inconclusive: 35.5 µM [inhibitor, partial curve, poor fit] |  |
| COc1ccc(-c2nnn(CC(=O)c3ccc4c(c3)OCCO4)n2)cc1OC | inconclusive: 0.366 µM [inhibitor, full curve, poor fit] |  |
| Cc1nn(Cc2noc(C(=O)NC(C)c3ccccc3)n2)c(C)c1Br (centres undefined) | inconclusive: 11.2 µM [inhibitor, partial curve, poor fit] |  |
| C[C@]12CC[C@H](O)CC1=CCC1C2CC[C@]2(C)C(=O)[C@H](Br)CC12 (some centres undefined) | inconclusive: 35.5 µM [inhibitor, single point] |  |
| CC(C)Sc1oc(-c2ccco2)nc1S(=O)(=O)c1ccc(F)cc1 | inconclusive: 0.259 µM [inhibitor, single point] |  |
| CCN(CC)c1nc2ccccc2[nH]1 | inconclusive: 5.8 µM [inhibitor, single point] |  |
| CCOC(=O)c1sc(NC(=O)Cn2nnc3sc4c(c3c2=O)CCC(C(C)(C)C)C4)nc1C (centres undefined) | inactive |  |
| O=Cc1ccc(Oc2cc(-c3ccccc3)nc(-c3ccccc3)n2)cc1 | inconclusive: 35.5 µM [activator, partial curve, poor fit] |  |
| O=c1cc(CSc2n[nH]c(-c3ccncc3)n2)nc2sccn12 | inactive |  |
| CC(C)n1c(SCC(=O)Nc2nc3c(s2)CCCC3)nc2c1c(=O)n(C)c(=O)n2C | inconclusive: 25.1 µM [inhibitor, single point] |  |
| CCC1CCCCN1Cc1ccc(OC)c(C)c1 (centres undefined) | inconclusive: 32.6 µM [inhibitor, single point] |  |
